# Cleaved PARP in drug-treated melanoma cells

From a melanoma drug combination screen (doi:10.1371/journal.pone.0140310); values rounded.

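Human melanoma cells were exposed to a pair of drugs for 72 h in 1,536-well plates and read by automated microscopy after fixing and staining. Values are the share of nuclei positive for cleaved PARP as a percentage of the same share in the DMSO control: 100 is the control level, higher means more apoptosis. Every drug was used at one fixed concentration, the higher of two screened. The file gives one value for each pair and line, without errors, so small differences may be noise. Basal and induced levels differ widely between cell lines.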
Only some of the drugs and lines screened are listed, without regard to their results.

Compounds and concentrations:
GSK650394, 0.8 µM: O=C(O)c1ccc(-c2c[nH]c3ncc(-c4ccccc4)cc23)cc1C1CCCC1
SNS-032, 0.05 µM: CC(C)(C)c1cnc(CSc2cnc(NC(=O)C3CCNCC3)s2)o1
bortezomib, 0.005 µM: CC(C)C[C@H](NC(=O)[C@H](Cc1ccccc1)NC(=O)c1cnccn1)B(O)O
MK-1775, 0.1 µM: C=CCn1c(=O)c2cnc(Nc3ccc(N4CCN(C)CC4)cc3)nc2n1-c1cccc(C(C)(C)O)n1
vismodegib, 5 µM: CS(=O)(=O)c1ccc(C(=O)Nc2ccc(Cl)c(-c3ccccn3)c2)c(Cl)c1
PF-562271, 0.4 µM: CN(c1ncccc1CNc1nc(Nc2ccc3c(c2)CC(=O)N3)ncc1C(F)(F)F)S(C)(=O)=O
temozolomide, 10 µM: Cn1nnc2c(C(N)=O)ncn2c1=O
nilotinib, 1 µM: Cc1cn(-c2cc(NC(=O)c3ccc(C)c(Nc4nccc(-c5cccnc5)n4)c3)cc(C(F)(F)F)c2)cn1

nilotinib and temozolomide gave A101D: 166; UACC-62: 231; SK-MEL-30: 228; COLO 792: 225; G-361: 903; LOX IMVI: 172; MEL-HO: 27.4; WM3526: 84.4. Results for vismodegib and PF-562271 are A101D: 223; UACC-62: 247; SK-MEL-30: 211; COLO 792: 136; G-361: 108; LOX IMVI: 151; MEL-HO: 157; WM3526: 99.0. With MK-1775 and PF-562271 the screen read A101D: 137; UACC-62: 128; SK-MEL-30: 75.4; COLO 792: 265; G-361: 74.0; LOX IMVI: 84.0; MEL-HO: 68.9; WM3526: 94.4. For PF-562271 and nilotinib the values were A101D: 69.4; UACC-62: 348; SK-MEL-30: 58.2; COLO 792: 69.7; G-361: 197; LOX IMVI: 83.8; MEL-HO: 83.9; WM3526: 76.6.

bortezomib and vismodegib gave A101D: 356; UACC-62: 172; SK-MEL-30: 452; COLO 792: 761; G-361: 9830; LOX IMVI: 98.3; MEL-HO: 313; WM3526: 1910. With PF-562271 and bortezomib the screen read A101D: 573; UACC-62: 207; SK-MEL-30: 391; COLO 792: 362; G-361: 6890; LOX IMVI: 227; MEL-HO: 184; WM3526: 2430. For SNS-032 and PF-562271 the values were A101D: 315; UACC-62: 169; SK-MEL-30: 126; COLO 792: 148; G-361: 184; LOX IMVI: 329; MEL-HO: 152; WM3526: 148. MK-1775 and vismodegib gave A101D: 281; UACC-62: 101; SK-MEL-30: 146; COLO 792: 134; G-361: 256; LOX IMVI: 49.9; MEL-HO: 138; WM3526: 147.

With SNS-032 and bortezomib the screen read A101D: 1860; UACC-62: 163; SK-MEL-30: 822; COLO 792: 225; G-361: 6730; LOX IMVI: 140; MEL-HO: 204; WM3526: 2540. MK-1775 and GSK650394 gave A101D: 310; UACC-62: 134; SK-MEL-30: 122; COLO 792: 129; G-361: 143; LOX IMVI: 90.0; MEL-HO: 101; WM3526: 222. Results for GSK650394 and temozolomide are A101D: 139; UACC-62: 170; SK-MEL-30: 177; COLO 792: 168; G-361: 231; LOX IMVI: 171; MEL-HO: 185; WM3526: 204. With vismodegib and nilotinib the screen read A101D: 69.5; UACC-62: 163; SK-MEL-30: 72.5; COLO 792: 50.5; G-361: 82.9; LOX IMVI: 82.5; MEL-HO: 71.1; WM3526: 132.

With vismodegib and SNS-032 the screen read A101D: 255; UACC-62: 182; SK-MEL-30: 227; COLO 792: 176; G-361: 167; LOX IMVI: 78.9; MEL-HO: 134; WM3526: 105. With GSK650394 and bortezomib the screen read A101D: 2060; UACC-62: 142; SK-MEL-30: 510; COLO 792: 191; G-361: 6400; LOX IMVI: 212; MEL-HO: 173; WM3526: 1310. GSK650394 and SNS-032 gave A101D: 72.7; UACC-62: 203; SK-MEL-30: 90.0; COLO 792: 197; G-361: 324; LOX IMVI: 1600; MEL-HO: 88.4; WM3526: 201. MK-1775 and nilotinib gave A101D: 140; UACC-62: 140; SK-MEL-30: 89.3; COLO 792: 196; G-361: 128; LOX IMVI: 126; MEL-HO: 74.7; WM3526: 283.

SNS-032 and temozolomide gave A101D: 124; UACC-62: 151; SK-MEL-30: 38.6; COLO 792: 89.2; G-361: 156; LOX IMVI: 248; MEL-HO: 62.1; WM3526: 150. With SNS-032 and MK-1775 the screen read A101D: 76.1; UACC-62: 157; SK-MEL-30: 197; COLO 792: 114; G-361: 107; LOX IMVI: 143; MEL-HO: 39.2; WM3526: 178. For vismodegib and GSK650394 the values were A101D: 42.0; UACC-62: 132; SK-MEL-30: 115; COLO 792: 128; G-361: 149; LOX IMVI: 31.6; MEL-HO: 239; WM3526: 136. Results for bortezomib and nilotinib are A101D: 619; UACC-62: 208; SK-MEL-30: 633; COLO 792: 313; G-361: 7240; LOX IMVI: 398; MEL-HO: 217; WM3526: 2020.

For temozolomide and vismodegib the values were A101D: 80.1; UACC-62: 257; SK-MEL-30: 207; COLO 792: 132; G-361: 175; LOX IMVI: 105; MEL-HO: 137; WM3526: 107. Results for nilotinib and SNS-032 are A101D: 284; UACC-62: 163; SK-MEL-30: 41.2; COLO 792: 201; G-361: 111; LOX IMVI: 85.1; MEL-HO: 77.1; WM3526: 117.